± gives the standard deviation. The entries are a selection whose mix differs from that of the whole data set. The uncertainty is large for many entries.
Assays:
[1] = system: MILI (PIWIL2) piRISC loaded with piRNA #1 (26 nt); assay: pre-steady-state target cleavage rate (min^-1); higher = faster piRNA-guided slicing of the target; settings: guide: piRNA #1 5'p-UGAGGUAGUAGGUUGUAUAGUAUCCA; auxiliary factor: 500 nM mouse GTSF1
Procedure, shortened: (§1)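 Reactions were run for 0–8 or 0–960 min at 33 °C in HEPES–potassium acetate buffer, combining 1 nM active affinity-purified piRISC with one synthetic guide, […] transcribed, DNA-blocked target RNA library and, in some cases, 500 nM GTSF1 partner protein. Sequencing of uncleaved targets followed, with normalisation to depth and to weakly complementary targets. Three trials were pooled, k3 was capped at 0.0001 min^-1, and the pre-steady-state cleavage rate was taken from a burst-and-steady-state fit.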

[2] = system: MIWI (PIWIL1) piRISC loaded with piRNA #1 (30 nt); assay: as above; settings: guide: piRNA #1 5'p-UGAGGUAGUAGGUUGUAUAGUAUCCAGAGG; auxiliary factor: 500 nM mouse GTSF1
Procedure, shortened: as §1

[3] = system: EfPiwi piRISC loaded with piRNA #1 (26 nt); assay: pre-steady-state target cleavage rate (min^-1); guide: piRNA #1 5'p-UGAGGUAGUAGGUUGUAUAGUAUCCA; MIWI and MILI are mouse PIWI proteins and EfPiwi is from a freshwater sponge; tags in brackets are library labels; higher = faster piRNA-guided slicing of the target; settings: auxiliary factor: 500 nM Ephydatia muelleri Gtsf1
Procedure, shortened: as §1

| Sequence | pre-steady-state target cleavage rate [1] | pre-steady-state target cleavage rate [2] | pre-steady-state target cleavage rate [3] |
| --- | --- | --- | --- |
| GGAGACCUAUGUAUACAGACCUACUACCUCA | 0.00056 ± 0.013 | 0.000861 ± 0.0066 | 0.000394 ± 0.009 |
| GGAGACCUAUGAAUACAACGUAGUACCUCA | 0.000729 ± 0.0083 | 0.000184 ± 0.011 |  |
| GGAGACCUAUGAAUACAACCUACUACGACA | 0.00245 ± 0.0039 | 0.000376 ± 0.007 |  |
| GGAGACCUAUGUAUAAACCUACUACCUCA | 0.00112 ± 0.0057 | 0.000161 ± 0.017 |  |
| GGAGACCUAUGAUAUCAAACUACUACCUCA | 0.00495 ± 0.0026 | 0.000161 ± 0.022 |  |
| GGAGACCUAUGAUUACAACCUAGAUCCUCA | 0.00125 ± 0.0056 | 0.000497 ± 0.0055 | 0.000227 ± 0.0092 |
| GGAGACCUAUGAUAUCUACCUACUACCACA | 0.000263 ± 0.021 | 0.000102 ± 0.021 |  |
| GGAGACCUAUGAUUACAACCAACUACCUGA | 0.00179 ± 0.0034 | 0.000341 ± 0.0063 |  |
| GGAGACCUAUGAUUACAACCUUCAACCUCA | 0.00188 ± 0.0034 | 0.000277 ± 0.006 |  |
| GGAGACCUAUGAUAUGUUGCUACUACCCA | 0.000162 ± 0.018 | 0.00018 ± 0.0095 |  |
| GGAGACCUAUGAUAUCUACCAACUACCUCA | 0.000232 ± 0.012 | 0.000112 ± 0.018 |  |
| GGAGACCUAUGUAUACAACCAUCUACCUCA | 0.00244 ± 0.0032 | 0.000293 ± 0.0072 |  |
| GGAGACCUAUGAUUACAACCUACUACCAUCA | 0.00378 ± 0.0028 | 0.000482 ± 0.0069 |  |
| GGAGACCUAUGAUAACAACCUUCUACCACA | 0.00111 ± 0.0052 | 0.000268 ± 0.007 |  |
| GGAGACCUAUGAUAACAACCUACAAGCUCA | 0.00163 ± 0.0042 | 0.000121 ± 0.022 |  |
| GGAGACCUAUGAUUACACCUACUACCUCA | 0.000835 ± 0.0075 | 0.000695 ± 0.0053 |  |
| GGAGACCUAUGAAUACAACCUUGUACCUCA | 0.00106 ± 0.0057 | 0.000214 ± 0.011 |  |
| GGAGACCUAUGAUAUCAUCCUUCUACCUCA | 0.00121 ± 0.0054 | 0.00027 ± 0.0092 |  |
| GGAGACCUAUGUAUAGAACCAACUACCUCA | 0.00128 ± 0.0039 | 0.000347 ± 0.0066 |  |
| GGAGACCUUACUAUACAACCUUGAACCUCA | 0.000166 ± 0.022 | 0.000253 ± 0.014 |  |
| GGAGACCUAUGAUAUCAACCUACUACCUA | 0.000794 ± 0.0061 | 0.000148 ± 0.019 |  |
| GGAGACCAUACUAUACAAACCUACUACCUCA | 0.0045 ± 0.003 | 0.00279 ± 0.0032 |  |
| GGAGACCUAUGAAUACAACCUUCUACCACA | 0.00194 ± 0.0036 | 0.000395 ± 0.0064 |  |
| GGAGUGGAUACUAUACAACCUACUAGGAGA [g6:g26:cont:t1A] | 0.000669 ± 0.0052 | 0.000559 ± 0.0066 |  |
| GGAGACCUAUGAUAUGUUGCUACUAACCUCA | 0.000404 ± 0.011 | 0.000563 ± 0.0067 | 0.000573 ± 0.0052 |

| Sequence | pre-steady-state target cleavage rate [1] | pre-steady-state target cleavage rate [2] | pre-steady-state target cleavage rate [3] |
| --- | --- | --- | --- |
| GGAGACCAUACUAUUCAACCUACUACCUGA | 0.114 ± 0.018 | 0.64 ± 0.075 | 0.00313 ± 0.0026 |
| GGAGACCUAUGAUUACUACCUAGUACCUCA | 0.00104 ± 0.0049 | 0.000142 ± 0.014 | 0.00128 ± 0.0048 |
| GGAGACCUAUGAUAACAUGCUACUACCUCA | 0.000899 ± 0.0059 | 0.000428 ± 0.0063 | 0.00188 ± 0.0048 |
| GGAGACCUAUGAUUACAUCGUACUACCUCA | 0.0019 ± 0.0035 | 0.00102 ± 0.0044 | 0.00113 ± 0.0058 |
| GGAGACCUAUGAAUACAACCAUACUACCUCA | 0.00155 ± 0.005 | 0.000577 ± 0.0083 | 0.000211 ± 0.013 |
| GGAGACCUAUGAAUACAACCAACUACCUCA | 0.00243 ± 0.0026 | 0.000197 ± 0.011 | 0.000914 ± 0.0089 |
| GGAGACCUAUGAUAACAACCUAACUACCUCA | 0.00282 ± 0.0031 | 0.00103 ± 0.0036 | 0.00064 ± 0.011 |
| GGAGACCUAUGAAUACAACCUACUGCCUCA | 0.0052 ± 0.0029 | 0.000238 ± 0.0081 | 0.00368 ± 0.0037 |
| GGAGACCUAUGAUUACAAGCCUACUACCUCA | 0.000475 ± 0.012 | 0.000196 ± 0.014 | 0.00171 ± 0.0047 |
| GGAGUGGAUACUAUACAACCUACUUCCACA | 0.000457 ± 0.0054 | 0.000478 ± 0.0076 | 0.00294 ± 0.0024 |
| GGAGACCUAUGAUUACACCCUACUACCUCA | 0.00215 ± 0.0029 | 0.00219 ± 0.0038 | 0.00142 ± 0.0044 |
| GGAGACCUAUGAUAUCAUCGUACUACCUCA | 0.000168 ± 0.015 | 0.000177 ± 0.0083 | 0.000375 ± 0.0059 |
| GGAGACCUAACUAAACUACCUACUACCUCA | 0.0594 ± 0.017 | 0.00115 ± 0.011 | 0.00179 ± 0.0054 |
| GGAGACCUAUGUAUACAACCUACUAGGAGA [g6:g19:cont:t1A] | 0.000624 ± 0.011 | 0.000824 ± 0.006 | 0.000813 ± 0.009 |
| GGAGACCUAUGAAUACAACCUACUCCCUCA | 0.00391 ± 0.0022 | 0.00154 ± 0.0025 | 0.00207 ± 0.0041 |
| GGAGAGGAUACUAUACAACCUACUAGGUCA | 0.00138 ± 0.0052 | 0.00172 ± 0.0031 | 0.00277 ± 0.0032 |
| GGAGACCUAUGUAUACAAACCUACUACCUCA | 0.00122 ± 0.0049 | 0.000664 ± 0.0057 | 0.00181 ± 0.0046 |
| GGAGACCUAUGAUAUGUUGGUACUACAUCA | 0.000384 ± 0.0098 | 0.000383 ± 0.0095 | 0.000403 ± 0.01 |
| GGAGACCUAUGAUAUGUUCCAACUACCUCA | 0.000397 ± 0.011 | 0.000307 ± 0.0092 | 0.000304 ± 0.0078 |
| GGAGACCUAUGAUAACAACCUUCUACGUCA | 0.000593 ± 0.0089 | 0.000223 ± 0.0074 | 0.000282 ± 0.0075 |
| GGAGACCUAUGUAUAGUACCUACUACCUCA | 0.013 ± 0.0027 | 0.000688 ± 0.0068 | 0.00121 ± 0.0048 |
| GGAGACCUAUCAAUACAACCAACUACCUCA | 0.00756 ± 0.0033 | 0.0016 ± 0.0043 | 0.0011 ± 0.0082 |
| GGAGACCUAUGAAAACAACCUACUACGUCA | 0.0014 ± 0.0038 | 0.00161 ± 0.0035 | 0.000265 ± 0.0076 |
| GGAGACCUAACUAUACUACCAACUACCUCA | 0.00367 ± 0.0055 | 0.000834 ± 0.015 | 0.000933 ± 0.0076 |

For convenience, some entries already given.

| Sequence | pre-steady-state target cleavage rate [1] | pre-steady-state target cleavage rate [2] | pre-steady-state target cleavage rate [3] |
| --- | --- | --- | --- |
| GGAGACCUAUGAUAUGUUGCUACUACCCA | 0.000162 ± 0.018 | 0.00018 ± 0.0095 |  |
| GGAGACCUAUGAUAUCUACCAACUACCUCA | 0.000232 ± 0.012 | 0.000112 ± 0.018 |  |
| GGAGACCUAUGUAUACAACCAUCUACCUCA | 0.00244 ± 0.0032 | 0.000293 ± 0.0072 |  |
| GGAGACCUAUGAUUACAACCUACUACCAUCA | 0.00378 ± 0.0028 | 0.000482 ± 0.0069 |  |
| GGAGACCUAUGAUAACAACCUUCUACCACA | 0.00111 ± 0.0052 | 0.000268 ± 0.007 |  |
| GGAGACCUAUGAUAACAACCUACAAGCUCA | 0.00163 ± 0.0042 | 0.000121 ± 0.022 |  |
| GGAGACCUAUGAUUACACCUACUACCUCA | 0.000835 ± 0.0075 | 0.000695 ± 0.0053 |  |
| GGAGACCUAUGAAUACAACCUUGUACCUCA | 0.00106 ± 0.0057 | 0.000214 ± 0.011 |  |
| GGAGACCUAUGAUAUCAUCCUUCUACCUCA | 0.00121 ± 0.0054 | 0.00027 ± 0.0092 |  |

Source: the supplement of paper PMC10338343
